Assay results published in paper PMC11858653, “Design, Synthesis and Bioactive Evaluation of Topo I/c-MYC Dual Inhibitors to Inhibit Oral Cancer via Regulating the PI3K/AKT/NF-κB Signaling Pathway” (Molecules, 2025).

Test system: Cal27 cells
Test: Cellular localization by confocal microscopy
Type: cell-based, human
Settings: Cal27, 48 h

Cc1cc(C)c2c(n1)S(=O)(=O)c1c-2nc(NCCN2CCCCC2)c2ccccc12 [7be, 7,9-Dimethyl-5-((2-(piperidin-1-yl)ethyl)amino) pyrido[3′,2′:4,5]thieno[3,2-c]isoquinoline 11,11-dioxide]
Pearson's colocalization coefficient with LTDR (lysosome): 0.8 | colocalization coefficient with MTDR (mitochondria): 0.42
